Patent US11246949B2, “Imaging contrast agents and uses thereof” (The Research Foundation for The State University of New York, priority 2011, dated 2022)

Key:
[1] = Benzoate hydroxylation (reactive oxygen species generation); details: for Benzoate hydroxylation: 10 μM complex, 1.00 mM benzoate, 50 μM ascorbate, 50 μM H2O2, 100 mM NaCl, 20 mM HEPES, pH 7.5, 37° C., 1 hr
[2] = CEST imaging of phantoms on 4.7 Tesla MRI scanner; details: 2-8 mM, 37° C., 20 mM HEPES, 100 mM NaCl, 4.7 T
[3] = CEST spectra on NMR spectrometer (paraCEST peak); type: physicochemical; details: for maximum CEST position: 8 mM, 20 mM HEPES pH 6.85, 100 mM NaCl, B1=960 Hz, 400 MHz; for paraCEST peak: Table 5
[4] = 1H NMR proton resonance width, suitability for MRSI; type: physicochemical; details: for MRSI (narrow proton resonances): Table 5
[5] = Effective magnetic moment by Evans' method; type: physicochemical
[6] = Temperature dependence of non-exchangeable proton resonances (1H NMR, thermometry); type: physicochemical
[7] = Fe(L1): 100 mM NaCl in D2O, pH 7.4, Fe(L2): D2O, pH 7.0

SMILES | Benzoate hydroxylation [1] [% standard] | CEST peak position [3] [ppm] | paraCEST peak [3] | MRSI (narrow proton resonances) [4] | also measured
O=C([O-])CN(CCN(CC(=O)[O-])CC(=O)[O-])CC(=O)[O-].[Fe+3] [Fe(EDTA), reference compound] | 88 ± 2.5 | – | – | – | –
NC(=O)CN1CCN(CC(N)=O)CCN(CC(N)=O)CC1.[Fe+2] [Fe(L1)] | 8.2 ± 0.9 | 69 | 69 ppm | No | CEST in phantoms, dependence on concentration [2]: increases linearly with concentration; maximum CEST position ([3]; 25° C.): 71 ppm; CEST effect, temperature comparison ([3]; 37° C. vs 25° C.): larger at 37 °C than at 25 °C; maximum CEST position ([3]; 37° C.): 69 ppm; proton resonance width / suitability for MRSI [4]: not suitable for MRSI; effective magnetic moment ([5]; 25° C.): 5.1 Bohr-Magnetons; effective magnetic moment [5, 7]: 5.1 BM
Cc1nc(CN2CCN(Cc3ccc(N)c(C)n3)CCN(Cc3ccc(N)c(C)n3)CC2)ccc1N.[Fe+2] [Fe(L2)] | – | 6 | 6 ppm | Yes | proton resonance width / suitability for MRSI [4]: suitable for MRSI; CT/FWHM ([6]; iron(II) macrocyclic complexes): 2.44 and 1.53; Δ ([6]; iron(II) macrocyclic complexes): 201 ppm; FWHM ([6]; linewidth, iron(II) macrocyclic complexes): 0.388; pH dependence of proton chemical shifts ([6]; pH 6.5-8): independent of pH; linewidth of non-exchangeable proton resonances ([6]; preliminary data): 250 Hz; CT ([6]; temperature coefficient, iron(II) macrocyclic complexes): 0.594 ppm/° C.; effective magnetic moment ([5]; 25° C.): 5.8 Bohr-Magnetons; effective magnetic moment [5, 7]: 5.8 BM
NC(=O)CN1CCN(CC(N)=O)CCN(CC(N)=O)CCN(CC(N)=O)CC1.[Fe+2] [Fe(L4)] | 3.5 ± 0.2 | – | 50 ppm | No | inertness towards hydroxylation of benzoate [1]: remarkably inert
[Fe+2].c1ccc2[nH]c(CN3CCN(Cc4nc5ccccc5[nH]4)CCN(Cc4nc5ccccc5[nH]4)CC3)nc2c1 [Fe(L5)] | – | – | 52 ppm | Possible | –
CC(O)CN1CCN(CC(C)O)CCN(CC(C)O)CCN(CC(C)O)CC1.[Fe+2] (stereo not drawn) [Fe(L6)] | – | – | 54 ppm | Possible | –
CC(O)CN1CCNCCN(CC(C)O)CCNCC1.[Fe+2] (stereo not drawn) [Fe(L7)] | – | 170 | 170 ppm | Yes | –
Nc1cccc(CN2CCN(Cc3cccc(N)n3)CCN(Cc3cccc(N)n3)CC2)n1.[Fe+2] [Fe(L8)] | – | – | No | Yes | –
NC(=O)CN1CCN(CC(N)=O)CCN(CC(N)=O)CC1.[Ni+2] [Ni(L1)] | – | – | 76 ppm | No | –

Several values for one entry are separate records, joined by “and”; a condition that tells them apart may be missing. Equal entries are not always repeated.
